Laboratory results: PubChem BioAssay AID1259286 (Sanger Institute, 2017)

Purpose: 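Kinases whose loss adds to targeted drug killing of colorectal cancer cells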 (primary screen)
System: NCI-H630 human colorectal cancer cells
Knock-down reagent: siRNA pool against human genes
Challenge: anchor drugs BYL719 at 1 µM, cetuximab at 5 µg/ml or trametinib at 10 nM, or DMSO vehicle alone; exposure time not given
Measured: 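Viability relative to non-targeting pool wells, averaged over replicates, with robust z-score for knock-down alone and a synergy score for each anchor drug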
Direction: viability z-score, knock-down alone: higher = more viable cells, weaker knock-down effect
Hit rule: 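a gene is called essential when its knock-down-alone viability robust z-score is below -3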
Meaning of the calls: active = essential when knocked down alone; inactive = not essential alone
This is a random part of 794 reagents tested. 17 of all reagents (2.1%) were called active. 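Calls use knock-down alone only; synergy above 0.15 marked separately; viability seems capped at control level; exposure time not given.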 Entries without a mark were called inactive. Not all columns of the deposit are shown. Not stated in the record: the amount of reagent, the time to read-out.

The opening 5 entries, to show the layout:
no.	gene	PubChem SID	viability z-score, knock-down alone
1	NLK	SID56478865	-1.36
2	TEX14	SID152148327	0.464
3	EPHA5	SID152153658	0.464
4	ADPGK	SID134311981	-0.693
5	MARK4	SID56479022	0.464

The list itself, from the start:
no.	gene	PubChem SID	viability z-score, knock-down alone
1	NLK	SID56478865	-1.36
2	TEX14	SID152148327	0.464
3	EPHA5	SID152153658	0.464
4	ADPGK	SID134311981	-0.693
5	MARK4	SID56479022	0.464
6	PGK1	SID56479130	-0.157
7	STK24	SID135620898	0.464
8	PRKDC	SID56478960	0.464
9	FASTK	SID56479004	-1.78
10	BUB1B	SID152154799	-1.49
11	BRSK1	SID135620852	0.464
12	CSNK1D	SID56478658	0.464
13	CAMK2G	SID56478805	0.464
14	RNASEL	SID56478962	0.291
15	EPHB2	SID135620616	0.464
16	STK35	SID135620978	0.464
17	SHPK	SID135621260	0.464
18	TSSK6	SID152147466	0.464
19	YES1	SID152156078	0.464
20	AK3	SID56479080	0.464
21	CAMKV	SID135620973	0.464
22	GUCY2C	SID152148747	-0.00648
23	CKS2	SID56479182	0.464
24	IKBKG	SID152147833	0.464
25	FN3KRP	SID56479164	-0.286
26	PNCK	SID152151558	0.464
27	BMX	SID152147462	0.116
28	MYLK2	SID56479029	0.23
29	UCK2	SID56478981	0.464
30	AMHR2	SID56478996	0.464
31	AKT1	SID135620599	0.464
32	NME5	SID56479119	0.464
33	MARK1	SID152146970	0.464
34	RPS6KA1	SID152152227	-0.361
35	TAF1L	SID152155360	0.464
36	PIP5K1B	SID152154468	0.164
37	PLK3	SID56478615	-2.38
38	BCKDK	SID135620909	0.464
39	AK5	SID56478914	0.464
40	FLT3	SID152150278	-0.732
41	EEF2K	SID152154873	-2.77
42	GALK2	SID56479099	0.33
43	ACVRL1	SID152155046	0.464
44	CSNK1A1	SID152148946	0.464
45	ACVR1	SID152154539	-0.139
46	PIK3R2	SID135620607	0.464
47	MYO3A	SID152148134	0.035
48	IGF1R	SID152153009	0.464
49	PTPRU	SID152150387	0.314
50	BMPR1A	SID135620910	0.464
